This is an account of results in publication PMC12313907.

The chains behind the UniProt entries cited, without tags or fusion partners. Where a name states a change or a piece, a line headed by the entry shows the natural chain unless it says otherwise.
UniProt Q99873: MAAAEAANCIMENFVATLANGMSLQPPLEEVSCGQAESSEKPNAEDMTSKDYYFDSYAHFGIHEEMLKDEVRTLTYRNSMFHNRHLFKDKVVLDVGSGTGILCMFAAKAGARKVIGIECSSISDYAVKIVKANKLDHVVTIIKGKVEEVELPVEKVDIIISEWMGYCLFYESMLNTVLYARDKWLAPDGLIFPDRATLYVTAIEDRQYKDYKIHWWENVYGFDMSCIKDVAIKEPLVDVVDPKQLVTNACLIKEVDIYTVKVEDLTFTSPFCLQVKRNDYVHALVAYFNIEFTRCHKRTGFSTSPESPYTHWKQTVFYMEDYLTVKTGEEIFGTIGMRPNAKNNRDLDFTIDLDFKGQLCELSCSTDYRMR
UniProt P61081: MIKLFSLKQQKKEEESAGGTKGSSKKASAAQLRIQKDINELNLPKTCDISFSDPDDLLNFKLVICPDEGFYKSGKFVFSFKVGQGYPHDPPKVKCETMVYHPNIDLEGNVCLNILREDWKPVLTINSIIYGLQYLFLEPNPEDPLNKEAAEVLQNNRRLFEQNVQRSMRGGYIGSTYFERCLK

The experiment concerns the target FLAG-PRMT1 (UniProt Q99873). Nature of the experiment: affinity purification with mass spectrometry; FLAG beads on lysates of HK-2 cells expressing FLAG-PRMT1; SDS-PAGE, LC-MS; fold change >4 against control taken as interactor.

No constants are given. Whether binding was seen depends on the method and setting. Binding seen in cells or lysates may run through a third protein. Here binding means that the protein was enriched with, or labelled near, the bait; the list need not be complete.

As to “Ubiquitin-conjugating enzyme E2M (UBE2m), endogenous in HK-2 cells (from UniProt P61081 1-183)”, the binding entry was “binds”.
